Laboratory results from paper PMC3854969.
Results are given in words; binding and its absence hold for the method and conditions named. In cells and extracts the contact can be indirect. Here binding means that the protein was enriched with, or labelled near, the bait; the list need not be complete.

Chains of the proteins cited; added tags and fusions are not shown. Residues count along the entry.
UniProt Q3SXY8: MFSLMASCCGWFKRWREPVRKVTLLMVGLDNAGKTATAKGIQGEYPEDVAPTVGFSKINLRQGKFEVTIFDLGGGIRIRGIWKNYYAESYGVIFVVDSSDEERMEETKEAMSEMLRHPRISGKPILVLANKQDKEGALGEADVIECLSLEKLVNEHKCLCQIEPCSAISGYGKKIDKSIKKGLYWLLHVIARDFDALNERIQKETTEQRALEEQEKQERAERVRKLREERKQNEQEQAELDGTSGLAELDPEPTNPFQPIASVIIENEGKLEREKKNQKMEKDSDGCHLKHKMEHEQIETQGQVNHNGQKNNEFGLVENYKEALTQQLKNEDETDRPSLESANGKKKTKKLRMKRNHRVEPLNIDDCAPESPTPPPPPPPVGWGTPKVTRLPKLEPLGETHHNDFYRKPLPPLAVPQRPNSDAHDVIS
UniProt O75155: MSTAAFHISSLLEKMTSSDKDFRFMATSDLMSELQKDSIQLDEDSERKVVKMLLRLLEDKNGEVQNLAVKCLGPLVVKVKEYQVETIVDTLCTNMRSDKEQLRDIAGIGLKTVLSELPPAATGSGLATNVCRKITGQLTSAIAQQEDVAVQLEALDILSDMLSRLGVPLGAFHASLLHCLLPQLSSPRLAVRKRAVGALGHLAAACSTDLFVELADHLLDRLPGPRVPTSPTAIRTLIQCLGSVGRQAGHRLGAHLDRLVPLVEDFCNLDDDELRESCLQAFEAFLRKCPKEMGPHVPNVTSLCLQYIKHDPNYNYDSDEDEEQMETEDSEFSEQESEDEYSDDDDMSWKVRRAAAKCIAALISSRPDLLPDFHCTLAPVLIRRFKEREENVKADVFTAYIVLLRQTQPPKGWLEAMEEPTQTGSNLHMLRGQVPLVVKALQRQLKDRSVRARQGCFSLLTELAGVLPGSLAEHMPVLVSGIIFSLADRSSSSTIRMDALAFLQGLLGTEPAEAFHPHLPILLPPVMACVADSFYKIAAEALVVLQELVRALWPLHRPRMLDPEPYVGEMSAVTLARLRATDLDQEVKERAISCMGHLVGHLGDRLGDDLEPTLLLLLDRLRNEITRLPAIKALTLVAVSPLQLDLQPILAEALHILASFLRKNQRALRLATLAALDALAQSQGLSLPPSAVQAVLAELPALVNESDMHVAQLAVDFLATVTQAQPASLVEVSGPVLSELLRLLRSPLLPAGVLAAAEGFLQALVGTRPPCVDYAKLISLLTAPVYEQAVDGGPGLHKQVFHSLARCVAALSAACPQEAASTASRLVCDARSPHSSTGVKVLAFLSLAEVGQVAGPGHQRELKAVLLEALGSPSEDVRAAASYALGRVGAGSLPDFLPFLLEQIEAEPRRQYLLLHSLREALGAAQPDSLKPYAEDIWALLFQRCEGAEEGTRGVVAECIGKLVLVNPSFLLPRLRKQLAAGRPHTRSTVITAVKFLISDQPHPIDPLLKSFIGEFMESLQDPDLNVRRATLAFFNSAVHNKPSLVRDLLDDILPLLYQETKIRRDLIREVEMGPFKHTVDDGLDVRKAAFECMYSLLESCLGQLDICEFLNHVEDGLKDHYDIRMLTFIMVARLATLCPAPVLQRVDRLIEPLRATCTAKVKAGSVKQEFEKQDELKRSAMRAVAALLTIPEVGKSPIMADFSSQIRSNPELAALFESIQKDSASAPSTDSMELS
UniProt P55786: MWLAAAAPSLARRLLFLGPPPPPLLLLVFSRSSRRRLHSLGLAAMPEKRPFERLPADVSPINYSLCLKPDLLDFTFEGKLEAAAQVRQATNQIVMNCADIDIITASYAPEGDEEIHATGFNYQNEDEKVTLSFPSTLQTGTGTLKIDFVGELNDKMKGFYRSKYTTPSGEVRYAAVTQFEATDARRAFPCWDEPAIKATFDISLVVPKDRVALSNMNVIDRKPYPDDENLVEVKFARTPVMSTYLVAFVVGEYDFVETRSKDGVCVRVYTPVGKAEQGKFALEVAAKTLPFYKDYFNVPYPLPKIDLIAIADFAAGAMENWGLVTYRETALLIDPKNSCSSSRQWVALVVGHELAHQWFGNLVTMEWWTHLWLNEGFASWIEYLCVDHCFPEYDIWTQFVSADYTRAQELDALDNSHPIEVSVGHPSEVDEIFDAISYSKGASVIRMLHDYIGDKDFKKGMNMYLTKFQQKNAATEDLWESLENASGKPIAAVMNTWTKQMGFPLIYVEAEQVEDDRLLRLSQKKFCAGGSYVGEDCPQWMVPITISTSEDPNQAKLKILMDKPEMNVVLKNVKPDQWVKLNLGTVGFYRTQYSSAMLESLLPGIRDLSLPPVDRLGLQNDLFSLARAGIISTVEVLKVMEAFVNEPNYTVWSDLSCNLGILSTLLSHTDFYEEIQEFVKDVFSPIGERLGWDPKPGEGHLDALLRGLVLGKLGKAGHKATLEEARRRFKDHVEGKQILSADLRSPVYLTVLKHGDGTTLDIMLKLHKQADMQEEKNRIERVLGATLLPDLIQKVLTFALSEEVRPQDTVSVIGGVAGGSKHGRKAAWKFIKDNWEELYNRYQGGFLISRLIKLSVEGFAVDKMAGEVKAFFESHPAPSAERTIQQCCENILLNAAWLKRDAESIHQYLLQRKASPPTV
UniProt Q9Y4R8: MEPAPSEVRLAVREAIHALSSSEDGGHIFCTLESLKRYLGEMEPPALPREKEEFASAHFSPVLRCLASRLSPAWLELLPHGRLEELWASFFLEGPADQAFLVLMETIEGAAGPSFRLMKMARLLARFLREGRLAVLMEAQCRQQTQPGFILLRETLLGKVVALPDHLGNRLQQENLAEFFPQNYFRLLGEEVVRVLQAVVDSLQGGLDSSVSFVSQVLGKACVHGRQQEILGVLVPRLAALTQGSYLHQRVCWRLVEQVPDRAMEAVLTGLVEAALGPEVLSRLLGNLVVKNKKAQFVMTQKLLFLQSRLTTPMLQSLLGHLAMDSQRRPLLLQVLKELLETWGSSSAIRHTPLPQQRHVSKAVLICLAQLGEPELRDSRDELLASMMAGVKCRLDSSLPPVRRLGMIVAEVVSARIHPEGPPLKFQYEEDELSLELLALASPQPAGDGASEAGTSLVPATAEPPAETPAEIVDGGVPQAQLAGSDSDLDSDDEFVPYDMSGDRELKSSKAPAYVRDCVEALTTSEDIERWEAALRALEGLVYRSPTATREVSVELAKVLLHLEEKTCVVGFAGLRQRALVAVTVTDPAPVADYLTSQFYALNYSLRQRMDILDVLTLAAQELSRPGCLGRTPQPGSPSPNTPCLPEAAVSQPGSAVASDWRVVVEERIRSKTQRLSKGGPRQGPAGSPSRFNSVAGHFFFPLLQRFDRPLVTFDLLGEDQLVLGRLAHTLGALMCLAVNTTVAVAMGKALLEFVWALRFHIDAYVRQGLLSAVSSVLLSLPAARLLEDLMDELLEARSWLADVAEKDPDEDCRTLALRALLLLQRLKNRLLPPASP
UniProt Q92973: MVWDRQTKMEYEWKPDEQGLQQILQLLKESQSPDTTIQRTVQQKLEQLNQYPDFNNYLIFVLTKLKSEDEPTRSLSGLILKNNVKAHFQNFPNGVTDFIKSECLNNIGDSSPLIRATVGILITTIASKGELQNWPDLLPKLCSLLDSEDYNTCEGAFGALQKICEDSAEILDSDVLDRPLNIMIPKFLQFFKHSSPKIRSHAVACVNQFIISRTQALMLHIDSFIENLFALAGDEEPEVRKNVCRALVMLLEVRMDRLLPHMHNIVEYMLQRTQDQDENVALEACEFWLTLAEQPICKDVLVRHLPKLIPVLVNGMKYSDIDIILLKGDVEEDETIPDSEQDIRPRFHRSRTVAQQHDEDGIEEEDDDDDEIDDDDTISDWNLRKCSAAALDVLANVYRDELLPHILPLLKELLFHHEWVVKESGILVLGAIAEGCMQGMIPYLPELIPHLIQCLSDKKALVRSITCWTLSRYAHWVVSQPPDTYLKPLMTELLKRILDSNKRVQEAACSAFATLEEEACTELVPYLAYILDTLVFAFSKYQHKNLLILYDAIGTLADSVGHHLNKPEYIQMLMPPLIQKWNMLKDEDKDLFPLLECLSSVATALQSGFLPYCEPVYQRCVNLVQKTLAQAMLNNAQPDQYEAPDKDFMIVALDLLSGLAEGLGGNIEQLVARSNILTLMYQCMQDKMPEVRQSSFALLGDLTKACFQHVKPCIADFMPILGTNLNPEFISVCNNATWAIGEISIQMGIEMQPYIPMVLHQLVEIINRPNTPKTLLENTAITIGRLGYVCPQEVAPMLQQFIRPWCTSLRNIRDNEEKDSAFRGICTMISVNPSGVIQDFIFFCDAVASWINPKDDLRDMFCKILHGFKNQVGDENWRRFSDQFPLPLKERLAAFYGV
UniProt Q5TAQ9: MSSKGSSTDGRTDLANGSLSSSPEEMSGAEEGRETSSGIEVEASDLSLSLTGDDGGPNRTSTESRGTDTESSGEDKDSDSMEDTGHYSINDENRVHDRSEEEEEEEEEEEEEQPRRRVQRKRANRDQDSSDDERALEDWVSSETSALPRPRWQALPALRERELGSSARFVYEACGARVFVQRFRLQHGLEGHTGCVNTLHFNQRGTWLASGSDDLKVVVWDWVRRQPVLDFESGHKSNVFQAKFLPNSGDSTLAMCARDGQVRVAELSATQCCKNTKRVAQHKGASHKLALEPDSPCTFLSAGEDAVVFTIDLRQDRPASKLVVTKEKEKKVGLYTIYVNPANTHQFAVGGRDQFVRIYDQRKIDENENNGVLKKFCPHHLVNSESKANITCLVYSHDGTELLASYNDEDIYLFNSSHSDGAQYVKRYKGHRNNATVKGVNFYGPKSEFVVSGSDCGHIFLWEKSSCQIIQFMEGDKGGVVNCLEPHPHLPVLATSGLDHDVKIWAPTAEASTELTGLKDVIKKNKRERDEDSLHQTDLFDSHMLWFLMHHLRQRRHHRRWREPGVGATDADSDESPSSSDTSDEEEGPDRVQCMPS
UniProt O00410: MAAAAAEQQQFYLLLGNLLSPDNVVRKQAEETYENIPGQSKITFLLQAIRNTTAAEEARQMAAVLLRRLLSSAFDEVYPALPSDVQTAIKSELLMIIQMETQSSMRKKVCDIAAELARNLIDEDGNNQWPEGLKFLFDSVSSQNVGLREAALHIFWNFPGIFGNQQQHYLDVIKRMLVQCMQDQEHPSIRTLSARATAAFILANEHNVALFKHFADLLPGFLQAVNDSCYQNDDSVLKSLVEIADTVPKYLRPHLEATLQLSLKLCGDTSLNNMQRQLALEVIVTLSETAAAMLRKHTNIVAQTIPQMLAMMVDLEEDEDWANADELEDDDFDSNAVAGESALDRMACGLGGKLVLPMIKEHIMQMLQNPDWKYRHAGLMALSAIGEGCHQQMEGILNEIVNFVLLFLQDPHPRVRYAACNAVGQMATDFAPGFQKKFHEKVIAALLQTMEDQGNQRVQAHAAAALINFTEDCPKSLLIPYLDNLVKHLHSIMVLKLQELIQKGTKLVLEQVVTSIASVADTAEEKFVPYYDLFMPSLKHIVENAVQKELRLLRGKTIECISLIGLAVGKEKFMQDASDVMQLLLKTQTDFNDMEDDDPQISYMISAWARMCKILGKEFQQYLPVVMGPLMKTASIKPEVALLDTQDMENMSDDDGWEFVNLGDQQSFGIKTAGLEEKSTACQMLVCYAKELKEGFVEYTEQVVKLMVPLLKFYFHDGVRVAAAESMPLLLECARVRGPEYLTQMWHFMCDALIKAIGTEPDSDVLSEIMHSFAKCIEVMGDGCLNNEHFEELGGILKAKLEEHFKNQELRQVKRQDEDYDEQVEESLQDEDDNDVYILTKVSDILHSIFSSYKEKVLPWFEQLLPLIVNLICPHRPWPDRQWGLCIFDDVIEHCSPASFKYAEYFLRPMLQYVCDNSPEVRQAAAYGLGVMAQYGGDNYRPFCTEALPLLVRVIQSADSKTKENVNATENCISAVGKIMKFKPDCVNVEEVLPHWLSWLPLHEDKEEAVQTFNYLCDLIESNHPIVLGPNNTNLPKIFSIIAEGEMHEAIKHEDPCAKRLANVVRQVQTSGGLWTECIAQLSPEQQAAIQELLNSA
UniProt P10321, residues 25-366: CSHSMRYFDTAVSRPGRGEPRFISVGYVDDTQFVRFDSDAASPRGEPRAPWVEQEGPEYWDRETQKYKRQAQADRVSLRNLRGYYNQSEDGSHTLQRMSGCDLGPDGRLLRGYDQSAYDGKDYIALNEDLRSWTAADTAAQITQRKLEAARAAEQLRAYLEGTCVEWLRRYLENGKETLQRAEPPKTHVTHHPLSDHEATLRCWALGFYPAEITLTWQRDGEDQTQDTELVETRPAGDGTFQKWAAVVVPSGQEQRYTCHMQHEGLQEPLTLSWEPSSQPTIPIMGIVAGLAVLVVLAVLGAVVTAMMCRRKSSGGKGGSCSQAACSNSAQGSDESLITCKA

Assays:
[1] = target: N-terminally SF (Strep-Flag)-tagged human ARL13B (wild type) (human) (UniProt Q3SXY8); assay: affinity purification with mass spectrometry; SILAC with one-step Strep-Tactin purification from HEK293T lysates; SF-tagged ARL13B against SF-TAP alone or mutated SF-tagged ARL13B; eluates combined; quantitative MS, at least 2-fold enrichment
[2] = target: N-terminally SF (Strep-Flag)-tagged human ARL13B (wild type) (human) (UniProt Q3SXY8); assay: affinity purification with mass spectrometry; SF-TAP: two steps (Strep-Tactin Superflow, then anti-Flag M2 agarose, Flag peptide elution) from lysates of HEK293T cells transiently expressing SF-tagged ARL13B; lysis in TBS with 0.5% Nonidet-P40, 4°C; compared with SF tag alone; LC-MS/MS

Row | binding [1] | binding [2] | Molecule
1 | binds | binds | cullin-associated and neddylation-dissociated 2 (from UniProt O75155 1-1236)
2 | binds | binds | ankyrin repeat domain 13A (from UniProt Q8IZ07 1-590)
3 | binds | binds | aminopeptidase puromycin sensitive (from UniProt P55786 1-919)
4 | binds | binds | Telomere maintenance 2 (from UniProt Q9Y4R8 1-837)
5 | binds | binds | ribosomal protein, large, P1 (from UniProt P05386 1-114)
6 | binds | binds | Fanconi anemia, complementation group D2 (from UniProt Q9BXW9 1-1451)
7 | binds | binds | importin 8 (from UniProt O15397 1-1037)
8 | binds | binds | exportin 5 (from UniProt Q9HAV4 1-1204)
9 | binds | binds | gem associated protein 4 (from UniProt P57678 1-1058)
10 | binds | binds | tetratricopeptide repeat domain 27 (from UniProt Q6P3X3 1-843)
11 | binds | binds | transportin 1 (from UniProt Q92973 1-898)
12 | binds | binds | DDB1 and CUL4 associated factor 8 (from UniProt Q5TAQ9 1-597)
13 | binds | binds | importin 5 (from UniProt O00410 1-1097)
14 | binds | binds | major histocompatibility complex, class I, C (from UniProt P10321 25-366)
15 | binds | binds | WD repeat domain 17 (protein, UniProt Q8IZU2 1-1322) MAWMTYISNWFEQDDWYEGLQRANMSQVRQVGLLAAGCQPWNKDVCAASGDRFAYCATLAIYIYQLDHRYNEFKLHAIMSEHKKTITAISWCPHNPDLFASGSTDNLVIIWNVAEQKVIAKLDSTKGIPASLSWCWNAEDVVAFVSHRGPLFIWTISGPDSGVIVHKDAHSFLSDICMFRWHTHQKGKVVFGHIDGSLSIFHPGNKNQKHVLRPESLEGTDEEDPVTALEWDPLSTDYLLVVNLHYGIRLVDSESLSCITTFNLPSAAASVQCLAWVPSAPGMFITGDSQVGVLRIWNVSRTTPIDNLKLKKTGFHCLHVLNSPPRKKFSVQSPTKNHYTSSTSEAVPPPTLTQNQAFSLPPGHAVCCFLDGGVGLYDMGAKKWDFLRDLGHVETIFDCKFKPDDPNLLATASFDGTIKVWDINTLTAVYTSPGNEGVIYSLSWAPGGLNCIAGGTSRNGAFIWNVQKGKIIQRFNEHGTNGIFCIAWSHKDSKRIATCSSDGFCIIRTIDGKVLHKYKHPAAVFGCDWSQNNKDMIATGCEDTNVRVYYVATSSDQPLKVFSGHTAKVFHVKWSPLREGILCSGSDDGTVRIWDYTQDACINILNGHTAPVRGLMWNTEIPYLLISGSWDYTIKVWDTREGTCVDTVYDHGADVYGLTCHPSRPFTMASCSRDSTVRLWSLTALVTPVQINILADRSWEEIIGNTDYAIEPGTPPLLCGKVSRDIRQEIEKLTANSQVKKLRWFSECLSPPGGSDNLWNLVAVIKGQDDSLLPQNYCKGIMHLKHLIKFRTSEAQELTTVKMSKFGGGIGVPAKEERLKEAAEIHLRLGQIQRYCELMVELGEWDKALSIAPGVSVKYWKKLMQRRADQLIQEDKDDVIPYCIAIGDVKKLVHFFMSRGQLKEALLVAQAACEGNMQPLHVSVPKGASYSDDIYKEDFNELLHKVSKELAEWYFQDGRAVLAACCHLAIDNIELAMAYLIRGNELELAVCVGTVLGESAAPATHYALELLARKCMMISVCFPCVGYSVPFCYVNRNLAADLLLMIPDNELHLIKLCAFYPGCTEEINDLHDKCKLPTVEECMQLAETARADDNIFETVKYYLLSQEPEKALPIGISFVKEYISSSDWTLDTIYPVLDLLSYIRTEKLLLHTCTEARNELLILCGYIGALLAIRRQYQSIVPALYEYTSQLLKRREVSVPLKIEYLSEELDAWRACTQSTNRSLEDSPYTPPSDSQRMIYATLLKRLKEESLKGIIGPDYVTGSNLPSHSDIHISCLTGLKIQGPVFFLEDGKSAISLNDALMWAKVNPFSPLGTGIRLNPF
16 | binds | binds | nucleotide binding protein 2 (protein, UniProt Q9Y5Y2 1-271) MEAAAEPGNLAGVRHIILVLSGKGGVGKSTISTELALALRHAGKKVGILDVDLCGPSIPRMLGAQGRAVHQCDRGWAPVFLDREQSISLMSVGFLLEKPDEAVVWRGPKKNALIKQFVSDVAWGELDYLVVDTPPGTSDEHMATIEALRPYQPLGALVVTTPQAVSVGDVRRELTFCRKTGLRVMGIVENMSGFTCPHCTECTSVFSRGGGEELAQLAGVPFLGSVPLDPALMRTLEEGHDFIQEFPGSPAFAALTSIAQKILDATPACLP
17 | binds | binds | ADP-ribosylation factor-like 1 (protein, UniProt P40616 1-181) MGGFFSSIFSSLFGTREMRILILGLDGAGKTTILYRLQVGEVVTTIPTIGFNVETVTYKNLKFQVWDLGGQTSIRPYWRCYYSNTDAVIYVVDSCDRDRIGISKSELVAMLEEEELRKAILVVFANKQDMEQAMTSSEMANSLGLPALKDRKWQIFKTSATKGTGLDEAMEWLVETLKSRQ
18 | binds | binds | 2′,3′-cyclic nucleotide 3′ phosphodiesterase (protein, UniProt P09543 1-421) MNRGFSRKSHTFLPKIFFRKMSSSGAKDKPELQFPFLQDEDTVATLLECKTLFILRGLPGSGKSTLARVIVDKYRDGTKMVSADAYKITPGARGAFSEEYKRLDEDLAAYCRRRDIRILVLDDTNHERERLEQLFEMADQYQYQVVLVEPKTAWRLDCAQLKEKNQWQLSADDLKKLKPGLEKDFLPLYFGWFLTKKSSETLRKAGQVFLEELGNHKAFKKELRQFVPGDEPREKMDLVTYFGKRPPGVLHCTTKFCDYGKAPGAEEYAQQDVLKKSYSKAFTLTISALFVTPKTTGARVELSEQQLQLWPSDVDKLSPTDNLPRGSRAHITLGCAADVEAVQTGLDLLEILRQEKGGSRGEEVGELSRGKLYSLGNGRWMLTLAKNMEVRAIFTGYYGKGKPVPTQGSRKGGALQSCTII
19 | binds | binds | peroxisomal biogenesis factor 19 (protein, UniProt P40855 1-299) MAAAEEGCSVGAEADRELEELLESALDDFDKAKPSPAPPSTTTAPDASGPQKRSPGDTAKDALFASQEKFFQELFDSELASQATAEFEKAMKELAEEEPHLVEQFQKLSEAAGRVGSDMTSQQEFTSCLKETLSGLAKNATDLQNSSMSEEELTKAMEGLGMDEGDGEGNILPIMQSIMQNLLSKDVLYPSLKEITEKYPEWLQSHRESLPPEQFEKYQEQHSVMCKICEQFEAETPTDSETTQKARFEMVLDLMQQLQDLGHPPKELAGEMPPGLNFDLDALNLSGPPGASGEQCLIM
20 | binds | binds | armadillo repeat containing 6 (protein, UniProt Q6NXE6 1-501) MSERCCSRYSSGASIGCTPTSTQAKMVSKRIAQETFDAAVRENIEEFAMGPEEAVKEAVEQFESQGVDLSNIVKTAPKVSADGSQEPTHDILQMLSDLQESVASSRPQEVSAYLTRFCDQCKQDKACRFLAAQKGAYPIIFTAWKLATAGDQGLLLQSLNALSVLTDGQPDLLDAQGLQLLVATLTQNADEADLTCSGIRCVRHACLKHEQNRQDLVKAGVLPLLTGAITHHGHHTDVVREACWALRVMTFDDDIRVPFGHAHNHAKMIVQENKGLKVLIEATKAFLDNPGILSELCGTLSRLAIRNEFCQEVVDLGGLSILVSLLADCNDHQMRDQSGVQELVKQVLSTLRAIAGNDDVKDAIVRAGGTESIVAAMTQHLTSPQVCEQSCAALCFLALRKPDNSRIIVEGGGAVAALQAMKAHPQKAGVQKQACMLIRNLVAHGQAFSKPILDLGAEALIMQARSAHRDCEDVAKAALRDLGCHVELRELWTGQRGNLAP
21 | binds | binds | ataxin 10 (protein, UniProt Q9UBB4 1-475) MAAPRPPPARLSGVMVPAPIQDLEALRALTALFKEQRNRETAPRTIFQRVLDILKKSSHAVELACRDPSQVENLASSLQLITECFRCLRNACIECSVNQNSIRNLDTIGVAVDLILLFRELRVEQESLLTAFRCGLQFLGNIASRNEDSQSIVWVHAFPELFLSCLNHPDKKIVAYSSMILFTSLNHERMKELEENLNIAIDVIDAYQKHPESEWPFLIITDLFLKSPELVQAMFPKLNNQERVTLLDLMIAKITSDEPLTKDDIPVFLRHAELIASTFVDQCKTVLKLASEEPPDDEEALATIRLLDVLCEMTVNTELLGYLQVFPGLLERVIDLLRVIHVAGKETTNIFSNCGCVRAEGDISNVANGFKSHLIRLIGNLCYKNKDNQDKVNELDGIPLILDNCNISDSNPFLTQWVIYAIRNLTEDNSQNQDLIAKMEEQGLADASLLKKVGFEVEKKGEKLILKSTRDTPKP
22 | binds | binds | 7-dehydrocholesterol reductase (protein, UniProt Q9UBM7 1-475) MAAKSQPNIPKAKSLDGVTNDRTASQGQWGRAWEVDWFSLASVIFLLLFAPFIVYYFIMACDQYSCALTGPVVDIVTGHARLSDIWAKTPPITRKAAQLYTLWVTFQVLLYTSLPDFCHKFLPGYVGGIQEGAVTPAGVVNKYQINGLQAWLLTHLLWFANAHLLSWFSPTIIFDNWIPLLWCANILGYAVSTFAMVKGYFFPTSARDCKFTGNFFYNYMMGIEFNPRIGKWFDFKLFFNGRPGIVAWTLINLSFAAKQRELHSHVTNAMVLVNVLQAIYVIDFFWNETWYLKTIDICHDHFGWYLGWGDCVWLPYLYTLQGLYLVYHPVQLSTPHAVGVLLLGLVGYYIFRVANHQKDLFRRTDGRCLIWGRKPKVIECSYTSADGQRHHSKLLVSGFWGVARHFNYVGDLMGSLAYCLACGGGHLLPYFYIIYMAILLTHRCLRDEHRCASKYGRDWERYTAAVPYRLLPGIF
